Test results from publication doi:10.1101/2023.12.05.570199.
Results are given in words; binding and its absence hold for the method and conditions named. Some entries that bind do so weakly or less than the wild type.

The chains behind the UniProt entries cited, without tags or fusion partners. Residues count along the entry.
UniProt P0A4G0, residues 26-652: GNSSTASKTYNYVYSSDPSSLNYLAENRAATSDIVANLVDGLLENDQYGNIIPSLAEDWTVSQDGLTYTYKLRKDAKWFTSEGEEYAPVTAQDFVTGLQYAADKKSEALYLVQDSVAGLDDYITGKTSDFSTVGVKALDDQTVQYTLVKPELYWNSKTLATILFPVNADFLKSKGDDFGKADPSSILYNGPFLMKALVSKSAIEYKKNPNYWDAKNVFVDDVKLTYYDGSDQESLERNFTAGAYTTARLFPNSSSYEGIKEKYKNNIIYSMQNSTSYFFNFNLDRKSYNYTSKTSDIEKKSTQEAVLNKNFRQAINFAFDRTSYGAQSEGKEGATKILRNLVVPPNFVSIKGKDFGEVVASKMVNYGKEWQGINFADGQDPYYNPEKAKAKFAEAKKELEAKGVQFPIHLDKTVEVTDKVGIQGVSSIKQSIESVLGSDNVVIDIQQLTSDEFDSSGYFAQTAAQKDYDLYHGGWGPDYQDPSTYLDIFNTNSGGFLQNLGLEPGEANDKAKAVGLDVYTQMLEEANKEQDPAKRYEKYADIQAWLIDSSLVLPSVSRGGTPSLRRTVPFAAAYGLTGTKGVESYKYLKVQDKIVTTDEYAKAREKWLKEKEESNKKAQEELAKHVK

Target: AliB (residues 26-652) (Streptococcus pneumoniae) (UniProt P0A4G0)
Test: crystal structure

## AIQSEKARKHN [Peptide 2 (…)]
  binding: binds
